Experiment in all cases: protein microarray (ProtoArray v5.0), streptavidin-Alexa Fluor 647
What all share (details): 3'-biotin; 20 mM Tris (pH 7.5), 5 mM MgCl2, 100 mM KCl, 0.1% Tween-20, A/T-rich and random oligonucleotide blockers; temperature not stated; high values mean tight binding

Experiment [1] deals with PSMD5 (human).
Experiment [2] has as its system PSME1 (human).
Experiment [3] relates to PSPH (human).
For experiment [4], the system named is PTCHD1 (human).
The subject of experiment [5] is PTGES2 (human).
Experiment [6] concerns PTK2B (human).
Experiment [7] has as its system PTK6 (human).
Experiment [8] deals with PTMS (human).
For experiment [9], the system named is PTPN1 (human).
In experiment [10] the test system is PTPN12 (human).
Experiment [11] deals with PTPN2 (human).
Experiment [12] relates to PTPN5 (human).
Experiment [13] relates to PTPN7 (human).
Experiment [14] relates to PTPRE (human).
Experiment [15] concerns PTPRO (human).
Experiment [16] deals with PTS (human).
Experiment [17] deals with PUM2 (human).
Experiment [18] has as its system PVALB (human).
Experiment [19] relates to PVRL3 (human).
Experiment [20] concerns PXN (human).

Several values for one entry are separate records, joined by “and”; a condition that tells them apart may be missing. Equal entries are not always repeated. The list shows a part of the results.

In the case of “GGGAGGCTGAGGCAGG [G4-1 biotinylated (PQS2)]”, the binding signal is -0.362 z-score in experiment [1]; -0.359 z-score in experiment [2]; -0.321 z-score in experiment [3]; -0.326 z-score in experiment [4]; -0.353 z-score in experiment [5]; -0.355 z-score in experiment [6]. Besides, the binding signal is -0.279 z-score in [7]; -0.33 z-score in [8]; -0.351 z-score in [9]; -0.319 z-score in experiment [10]; -0.347 z-score in experiment [11]; -0.339 z-score in experiment [12]. Also, the binding signal is -0.29 z-score in experiment [13]; -0.289 z-score in [14]; -0.321 z-score in experiment [15]; -0.318 z-score in [16]; -0.28 z-score in experiment [17]; -0.282 z-score in experiment [18]. Besides, the binding signal in [19] was -0.331 z-score; in [20], -0.303 z-score and -0.348 z-score.

(Values after article PMC5996148.)
